Our source for the binding values is publication PMC5750328, “Study on oligomerization of glutamate decarboxylase from Lactobacillus brevis using asymmetrical flow field-flow fractionation (AF4) with light scattering techniques” (Analytical and Bioanalytical Chemistry, 2017).

These are yes or no findings as the source states them, for the method shown. Some binding calls cover weakened binding; strength is not graded here.

For this experiment, the target named is glutamate decarboxylase (LbGadB) from Lactobacillus brevis DSM 1269, recombinant (Lactobacillus brevis DSM 1269) (UniProt A9ZM78). The experiment in a line: dynamic light scattering (DLS); self-association; hydrodynamic diameter at pH 7 with NaCl, KCl, CaCl2 or (NH4)2SO4 at 0-1.2 M, at 25, 37, 45 and 60 °C; 384-well plate; both purified.

B1: glutamate decarboxylase (LbGadB) from Lactobacillus brevis DSM 1269, recombinant (enzyme, UniProt A9ZM78 1-480, looked up)
chain: MMNKNDQETQQMINNVDLEKTFLGSVEAGQSLPTYTLPDDPMAPDVAAQLVEHYRLNEAKANQNLATFCTTQMEPQADELMKNALNTNAIDKSEYPKTAAMENYCVSMIAHLWGIPDNEKIYDDFIGTSTVGSSEGCMLGGLALLHSWKHRAKAAGFDIEDLHSHKPNLVIMSGYQVVWEKFCTYWNVEMRQVPINGDQVSLDMDHVMDYVDENTIGIIGIEGITYTGSVDDIQTLDNLVTEYNKTATMPVRIHVDAAFGGLFAPFVDGFNPWDFRLKNVVSINVSGHKYGMVYPGLGWIVWRHDTADILPAEMRFQVPYLGKTVDSIAINFSHSGAHISAQYYNFIRFGLSGYKTIMQNVRKVSLKLTAALKTYGIFDILVDGSQLPINCWKLADDAPVGWTLYDLESELAKYGWQVPAYPLPKNRDDVTISRIVVRPSMTMTIADDFLDDLKLAIDGLNHTFGVTTTVDQDNKTTVRS
notes: glutamate decarboxylase LbGadB of Lactobacillus brevis DSM 1269; gene amplified from genomic DNA with a forward primer that holds the ATG (NdeI site) and a reverse primer with an XhoI site, cloned in pET21b; gene deposited as GenBank KX417371; Oligomeric state depends on pH: dimer at pH 7-8, hexamer at pH 6, so copies is left empty; the whole gene appears to have been cloned; Cloning NdeI/XhoI in …
Regarding B1, the binding result is “binds”.
